According to PubChem BioAssay AID445 (National Center for Advancing Translational Sciences (NCATS), 2006):
This is one part of the list. The main result of the screen is listed elsewhere. These columns were measured beside it and carry no call. The list favours compounds with an active or inconclusive main result. Words in brackets tell the shape of the fitted curve; partial curves, single points and poor fits give uncertain potencies.

Assay: IkB Signaling
Conditions: ABC-DLBCL IkBa-CBG/CBR dual luciferase ratio (green luciferase fused to IkBa over red control in OCI-Ly3 lymphoma cells), 4 h
In short: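 Curves were fitted separately to fusion (green), unfused (red) and ratio luminescence, then classed by r2, magnitude and activity. Cells: OCI-Ly3, 4 h compound plus doxycycline at 37C; 10 uM MG-132 defined full response.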

[1] = measured here: control luc red channel unless noted
[2] = measured here: IkB-luc green channel
[3] = measured here: control luc red channel

SMILES: CCn1cc2c(n1)-c1c(oc(C(=O)Nc3cccc(C(F)(F)F)c3)c1C)CC2
- AC50 [1]: 20 µM [falling, partial curve]

SMILES: Cc1cc(C(=O)Nc2cc(C)n(Cc3ccc(Cl)cc3)n2)no1
- AC50 [1]: 25.1 µM [falling, partial curve]

SMILES: c1ccc(Nc2nc(-c3cccs3)cs2)nc1
- AC50 [1]: 7.94 µM [falling, partial curve]

SMILES: Cc1ccc(NC(=O)C(=O)NCc2ccco2)cc1
- AC50 [1]: 7.94 µM [falling, partial curve]

SMILES: COc1ccccc1OCC(=O)NCC(c1ccc(Cl)cc1)N1CCOCC1 (centres undefined)
- AC50 [1]: 25.1 µM [falling, single point]

SMILES: O=C(NCCc1ccccc1)c1noc2c1CCCCC2
- AC50 [1]: 7.94 µM [falling, partial curve]

SMILES: CC(C)CC(=O)NC1(C(F)(F)F)C(=O)Nc2c1c(=O)[nH]c(=O)n2-c1ccccc1 (centres undefined)
- AC50 [1]: 0.0126 µM [rising, full curve, poor fit]

SMILES: COc1cc(C(=O)NC(c2ccc(Cl)cc2)c2cc(Cl)c3cccnc3c2O)cc(OC)c1OC (centres undefined)
- AC50 [1]: 31.6 µM [falling, partial curve, poor fit]

SMILES: c1ccc(C2(c3ccccc3)OCC(Cn3cncn3)O2)cc1 (centres undefined)
- AC50 [1]: 15.8 µM [falling, partial curve]

SMILES: Cn1c(=O)c2c(-c3ccccc3)n(-n3cnnc3)cc2n(C)c1=O
- AC50 [1]: 31.6 µM [rising, partial curve] [measured here: IkB-luc green channel]

SMILES: CCOc1ccccc1NC(=O)C(CC)n1c(C(=O)OC)cc2occc21 (centres undefined)
- AC50 [1]: 3.16 µM [falling, single point]

SMILES: COc1cc(C2c3c(-c4ccccc4O)n[nH]c3C(=O)N2Cc2ccco2)ccc1OCC(C)C (centres undefined)
- AC50 [1]: 25.1 µM [falling, single point]

SMILES: COc1ccc(N(C(=O)/C=C\C(=O)Nc2ccc(C)cc2)C(C(=O)NCc2ccco2)c2ccc(C)cc2)cc1 (centres undefined)
- AC50 [1]: 25.1 µM [falling, partial curve]

SMILES: O=C(Cn1ncc2ccsc2c1=O)N1CCN(c2ccccc2F)CC1
- AC50 [1]: 39.8 µM [falling, single point]

SMILES: Cc1ccc2cccc(OC(=O)c3ccc4c(c3)OCCO4)c2n1
- AC50 [1]: 31.6 µM [rising, partial curve] [measured here: IkB-luc green channel]

SMILES: COc1ccccc1CNC(=O)CC(c1ccc(C)cc1)N1Cc2ccccc2C1=O (centres undefined)
- AC50 [1]: 15.8 µM [falling, partial curve]

SMILES: COc1ccc(CCNC(=O)CCS(=O)(=O)c2cc(Br)cc3c2N(C(C)=O)CC3)cc1OC
- AC50 [1]: 0.126 µM [rising, full curve, poor fit]

SMILES: Cc1ccc(CNC(=O)C2COc3ccccc3C2)cc1 (centres undefined)
- AC50 [1]: 2.51 µM [rising, full curve, poor fit]

SMILES: COc1ccc2c(c1)Cc1sc(NC(=O)c3cccc(C)c3)nc1-2
- AC50 [1]: 7.94 µM [falling, partial curve]

SMILES: Cc1ccc(OCC(=O)OC2=C(C(=O)c3ccccc3)N(C)S(=O)(=O)c3ccccc32)cc1
- AC50 [1]: 25.1 µM [falling, single point]

SMILES: O=C(CCCSc1nnc(-c2cccs2)n1CC1CCCO1)c1ccccc1 (centres undefined)
- AC50 [1]: 39.8 µM [falling, partial curve]

SMILES: CCCn1c(SCC(=O)Nc2ccccc2N2CCCCC2)nc2c1c(=O)n(C)c(=O)n2C
- AC50 [2]: 20 µM [falling, partial curve]
- AC50 [3]: 20 µM [falling, partial curve]

SMILES: Cn1ccc2c(OCC(=O)NCc3ccccc3)cccc2c1=O
- AC50 [1]: 3.16 µM [rising, single point]

SMILES: CC(C)c1nn2c(=O)cc(COC(=O)c3cccc(NC(=O)c4cccs4)c3)nc2s1
- AC50 [1]: 3.16 µM [falling, full curve]

SMILES: CCc1ccccc1NC(=O)CCOc1ccccc1
- AC50 [1]: 15.8 µM [falling, partial curve]

SMILES: Cc1ccccc1C(=O)Nc1ccc2nc(SCC(=O)N3CCc4ccccc43)sc2c1
- AC50 [1]: 3.16 µM [falling, partial curve]

SMILES: COc1ccccc1CNC(=O)Cn1ncn2c(cc3sccc32)c1=O
- AC50 [1]: 3.98 µM [rising, partial curve]

SMILES: COc1ccccc1NC(=O)CC(c1cc(OC)c(OC)c(OC)c1)N1Cc2ccccc2C1=O (centres undefined)
- AC50 [1]: 39.8 µM [falling, single point]

SMILES: CCCCCSc1nc2sc3c(c2c(=O)n1-c1ccc(OC)cc1)CCN(C(C)=O)C3
- AC50 [1]: 10 µM [falling, partial curve]

SMILES: CCOc1cc(C(=O)OCC(=O)c2c(C)[nH]c3ccccc23)ccc1OCC(=O)N1CCOCC1
- AC50 [1]: 20 µM [falling, partial curve]

SMILES: CCOC(=O)CSc1nnc2n(-c3ccccc3)c(=O)c3c4c(sc3n12)CC(C(C)(C)C)CC4 (centres undefined)
- AC50 [1]: 39.8 µM [falling, single point]

SMILES: CCN(Cc1nc2ccccc2c(=O)[nH]1)Cc1cc(=O)oc2cc(C)c(C)cc12
- AC50 [1]: 25.1 µM [falling, partial curve]

SMILES: Cc1sc2ncn(CC(=O)N3CCN(c4ccc(F)cc4)CC3)c(=O)c2c1S(=O)(=O)N1CCC(C)CC1
- AC50 [1]: 15.8 µM [falling, partial curve]

SMILES: O=C(c1noc2c1CCCC2)N1CCCCC1
- AC50 [1]: 12.6 µM [falling, partial curve]

SMILES: COC(=O)C1=C(c2ccccc2)c2ccccc2S(=O)(=O)N1CC(=O)Nc1ccc(F)c(F)c1
- AC50 [1]: 20 µM [falling, partial curve]

SMILES: Cc1cccc(OCc2nnc(SCC(=O)N(C(C)C)C(C)C)n2Cc2ccco2)c1C
- AC50 [1]: 25.1 µM [falling, partial curve]

SMILES: O=C(CCS(=O)(=O)c1cc2c(cc1Cl)NC(=O)CO2)NCc1ccccc1Cl
- AC50 [1]: 12.6 µM [falling, partial curve]

SMILES: COc1ccc(C2CC(=O)c3cnc(NC(=O)c4cccc(OC)c4)nc3C2)cc1 (centres undefined)
- AC50 [1]: 5.01 µM [falling, partial curve]

SMILES: Oc1c(C(c2ccc(Cl)cc2Cl)N2CCN(c3ccccc3)CC2)sc2nc(-c3ccco3)nn12 (centres undefined)
- AC50 [1]: 39.8 µM [falling, single point]

SMILES: O=C(NCc1cccc(Cl)c1)c1ccc(NC(=O)N2CC3CCCN3c3ccccc32)cc1 (centres undefined)
- AC50 [1]: 10 µM [falling, partial curve]

SMILES: C=CCN1CN(S(=O)(=O)c2cccs2)c2nc3ccccc3nc21
- AC50 [1]: 12.6 µM [falling, partial curve]

SMILES: COc1ccc(NC(=O)CN2CCCN(Cc3ccc(Cl)cc3)S2(=O)=O)cc1Cl
- AC50 [1]: 12.6 µM [falling, partial curve]

SMILES: Cc1ccc(S(=O)(=O)Nc2nc3ccccc3nc2NCc2ccco2)cc1C
- AC50 [1]: 2 µM [falling, full curve]

SMILES: CCOC(=O)c1ccc(NC(=O)Cn2cc(C(=O)c3ccc(CC)cc3)c(=O)c3ccc(C)nc32)cc1
- AC50 [1]: 1 µM [falling, full curve, poor fit]

SMILES: CCOC(=O)c1cnc2ccccc2c1NCCc1ccc(OC)c(OC)c1
- AC50 [1]: 39.8 µM [falling, single point]

SMILES: CC1CCc2nn(CC(=O)Nc3ccccc3Cl)cc2C1 (centres undefined)
- AC50 [1]: 3.16 µM [rising, single point]

SMILES: COc1ccc(NC(=O)C(=O)NCC(c2cccnc2)N2CCc3ccccc32)cc1OC (centres undefined)
- AC50 [1]: 0.0398 µM [rising, full curve]

SMILES: CN(Cc1ccccc1)S(=O)(=O)c1ccc(-c2cnc(C3CC3)o2)cc1
- AC50 [1]: 10 µM [falling, partial curve]

SMILES: COc1cccc(S(=O)(=O)N2CCN(Cc3ccc4c(c3)OCO4)CC2)c1
- AC50 [1]: 25.1 µM [falling, partial curve, poor fit]

SMILES: Cc1cccc(N2CCN(C(=O)CN3CCSc4ccccc43)CC2C)c1 (centres undefined)
- AC50 [1]: 31.6 µM [falling, partial curve]

SMILES: COC(=O)c1sc(NC(=O)c2ccc(OC)cc2OC)nc1C
- AC50 [1]: 0.00316 µM [falling, full curve]

SMILES: CCCn1c(SCc2nc(-c3ccc(OC)c(OC)c3)no2)nnc1-c1ccccc1
- AC50 [1]: 39.8 µM [falling, single point]

SMILES: Cc1cc(Nc2ccc(F)cc2)n2c(nc3ccccc32)c1C#N
- AC50 [1]: 0.316 µM [rising, full curve]

SMILES: Cc1c(-c2nc(-c3ccccc3)no2)nnn1-c1cccc(C(F)(F)F)c1
- AC50 [1]: 1.26 µM [falling, full curve]

SMILES: COc1ccccc1CNC(=O)c1ccc2c(c1)nc(C)n2-c1ccccc1OC
- AC50 [1]: 10 µM [falling, partial curve, poor fit]

SMILES: CCn1cc(CN(C)C(=O)CSc2nc(-c3ccco3)cc(C(F)(F)F)n2)c(C)n1
- AC50 [1]: 31.6 µM [falling, partial curve]

SMILES: O=C(CSc1ncccc1C(=O)O)c1ccccc1
- AC50 [1]: 39.8 µM [rising, single point]

SMILES: CCOc1ccc(NC(=O)Cn2c(C)cc3ccccc3c2=O)cc1
- AC50 [1]: 12.6 µM [falling, partial curve]

SMILES: CCOc1ccccc1NC(=O)CN1C(=O)CC(c2ccc(OC)c(OC)c2)Sc2ccccc21 (centres undefined)
- AC50 [1]: 15.8 µM [falling, partial curve]

SMILES: COc1ccc(-c2n[nH]c(C(F)(F)F)c2-c2cc3ccccc3o2)c(O)c1
- AC50 [1]: 12.6 µM [falling, partial curve]

SMILES: COc1cc(OC)cc([C@H](CNc2ncnc3c2ncn3[C@@H]2O[C@@H](CO)[C@H](O)[C@@H]2O)c2ccccc2C)c1
- AC50 [2]: 0.631 µM [rising, full curve, poor fit]
- AC50 [3]: 0.02 µM [rising, full curve, poor fit]

SMILES: Cc1ccc(N2C(=O)CCSC23C(=O)N(Cc2ccccc2)c2ccccc23)cc1F (centres undefined)
- AC50 [1]: 12.6 µM [falling, partial curve]
